Test results as given in US20180022780A1 (priority 2014, published 2018).

Assay: general procedure: Fmoc solid-phase peptide synthesis; NovaSyn TGR R resin (Novabiochem); Oxyma/DIC (HOBt/DIC for manual couplings)
Settings: whole synthesis; for final HPLC purity: analytical RP-HPLC, 220 nm, two column systems; for isolated yield: of theory
[1] = scale of the general procedure 15 μmol
[2] = scale of the general procedure 15 μmol, side-chain lactam ring
[3] = scale 15 μmol, side-chain lactam ring

Substance	final HPLC purity [1]	isolated yield [1] [%]	isolated mass (scale 15 μmol) [mg]	final HPLC purity [2]	isolated yield [2] [%]	isolated mass [3] [mg]	isolated yield [3] [%]	isolated mass (scale 15 μmol, acetate salt, side-chain lactam ring) [mg]
H-GGC*RFGTU*TVQKLAHQIYQFTDKDKDNVAPRSKISPQGY-NH2	≧90%	2.5	1.6	–	–	–	–	–
H-GGD + RFGTDab + TVQKLAHQIYQFTDKDKDNVAPRSKISPQGY-NH2	–	–	–	≧95%	2.6	1.8	–	–
H-GGD + RFGTDpr + TVQKLAHQIYQFTDKDKDNVAPRSKISPQGY-NH2	–	–	–	≧90%	5.8	3.8	–	–
H-GGD + RFGTK + TVQKLAHQIYQFTDKDKDNVAPRSKISPQGY-NH2	–	–	–	≧95%	1.2	0.8	–	–
H-GGD + RFGTOrn + TVQKLAHQIYQFTDKDKDNVAPRSKISPQGY-NH2	–	–	–	≧95%	3.7	2.4	–	–
H-GGDab + RFGTD + TVQKLAHQIYQFTDKDKDNVAPRSKISPQGY-NH2	–	–	–	≧90%	1.9	1.4	–	–
H-GGDab + RFGTE + TVQKLAHQIYQFTDKDKDNVAPRSKISPQGY-NH2	–	–	–	≧95%	2.3	1.5	–	–
H-GGDpr + RFGTD + TVQKLAHQIYQFTDKDKDNVAPRSKISPQGY-NH2	–	–	–	≧95%	2.9	1.9	–	–
H-GGDpr + RFGTE + TVQKLAHQIYQFTDKDKDNVAPRSKISPQGY-NH2	–	–	–	≧95%	2.7	1.8	–	–
H-GGE + RFGTDab + TVQKLAHQIYQFTDKDKDNVAPRSKISPQGY-NH2	–	–	–	≧95%	3.0	1.9	–	–
H-GGE + RFGTDpr + TVQKLAHQIYQFTDKDKDNVAPRSKISPQGY-NH2	–	–	–	≧95%	1.7	1.2	–	–
H-GGE + RFGTK + TVQKLAHQIYQFTDKDKDNVAPRSKISPQGY-NH2	–	–	–	≧90%	–	6.0	9.0	–
H-GGE + RFGTOrn + TVQKLAHQIYQFTDKDKDNVAPRSKISPQGY-NH2	–	–	–	≧95%	2.4	1.6	–	–
H-GGOrn + RFGTE + TVQKLAHQIYQFTDKDKDNVAPRSKISPQGY-NH2	–	–	–	≧95%	2.6	1.7	–	–
H-GGU*RFGTC*TVQKLAHQIYQFTDKDKDNVAPRSKISPQGY-NH2	–	3.4	2.2	–	–	–	–	–
H-K(PAM)GC*RFGTU*TVQKLAHQIYQFTDKDKDNVAPRSKISPQGY-NH2	≧95%	2.9	2.0	–	–	–	–	–
H-K(PAM)GDpr + RFGTE + TVQKLAHQIYQFTDKDKDNVAPRS-(N-Me)K-ISPQGY-NH2	–	–	–	≧95%	0.9	0.6	–	–
H-K(PAM)GE + RFGTK + TVQKLAHQIYQFTDKDKDNVAPRSK-(N-Me)I-SPQGY-NH2	–	–	–	≧90%	0.9	0.6	–	–
H-K(PAM)GE + RFGTK + TVQKLAHQIYQFTDKDKDNVAPRSKISPQGY-NH2	–	–	–	≧95%	7.6	5.3	–	–
H-K(PAM)GK + RFGTE + TVQKLAHQIYQFTDKDKDNVAPRSKISPQGY-NH2	–	–	–	≧95%	5.0	3.5	–	–
K(PAM)GDpr + RFGTE + TVQKLAHQIYQFTDKDKDNVAPRSKISPQGY-NH2	–	–	–	≧95%	3.4	–	–	2.4
PAM-GGC*RFGTU*TVQKLAHQIYQFTDKDKDNVAPRSKISPQGY-NH2	≧95%	2.9	2.0	–	–	–	–	–
PAM-KGC*RFGTU*TVQKLAHQIYQFTDKDKDNVAPRSKISPQGY-NH2	≧95%	1.9	1.3	–	–	–	–	–
PEPTIDE1{G.G.K.R.F.G.T.D.T.V.Q.K.L.A.H.Q.I.Y.Q.F.T.D.K.D.K.D.N.V.A.P.R.S.K.I.S.P.Q.G.Y.[am]}$PEPTIDE1,PEPTIDE1,3:R3-8:R3$$$V2.0	≧95%	0.5	0.3	–	–	–	–	–
PEPTIDE1{G.G.K.R.F.G.T.E.T.V.Q.K.L.A.H.Q.I.Y.Q.F.T.D.K.D.K.D.N.V.A.P.R.S.K.I.S.P.Q.G.Y.[am]}$PEPTIDE1,PEPTIDE1,3:R3-8:R3$$$V2.0	≧90%	5.8	3.8	–	–	–	–	–
PEPTIDE1{G.G.[Orn].R.F.G.T.D.T.V.Q.K.L.A.H.Q.I.Y.Q.F.T.D.K.D.K.D.N.V.A.P.R.S.K.I.S.P.Q.G.Y.[am]}$PEPTIDE1,PEPTIDE1,3:R3-8:R3$$$V2.0	≧95%	12.1	7.9	–	–	–	–	–
PEPTIDE1{G.G.[U-CH2CH2].R.F.G.T.[U-CH2CH2].T.V.Q.K.L.A.H.Q.I.Y.Q.F.T.D.K.D.K.D.N.V.A.P.R.S.K.I.S.P.Q.G.Y.[am]}$PEPTIDE1,PEPTIDE1,3:R3-8:R3$$$V2.0	≧95%	4.0	2.6	–	–	–	–	–

Strings that start with PEPTIDE1 are HELM notation: dots part the residues, brackets hold end groups and non-standard residues.
